These are yes or no findings as the source states them, for the method shown.
Target: Epiphyas postvittana pheromone binding protein 3 (Epiphyas postvittana)
Assay: SEC; size exclusion chromatography in Tris/HCl pH 7.5, 100 mM NaCl, after Ni-NTA affinity chromatography; uncleaved C-terminal His10 tag; both purified

B1: Epiphyas postvittana pheromone binding protein 3 (protein)
chain: SEEVMKDLTSGFIKVLEECKKELNLSESIINDLYNYWKEDYSLLNRDVGCAIVCMSKKLELIDTSGKIHHGNAEDLAKKHGADSEVAAKLVAILHECEKTHDAIEDQCMKALEIAKCFRTNIHELNWAPKMDVVITEVLTEV
B1 was tested, and the binding was “no binding”.

Source: publication PMC7530677
